Reference: patent US12637435B2, “Nitrogen-containing heterocyclic compound or salt thereof, use thereof, and intermediate thereof” (FUJIFILM Corporation, priority 2020, dated 2026)

The chains behind the UniProt entries cited, without tags or fusion partners. Residues count along the entry.
UniProt Q02127, 31-395 limits assumed: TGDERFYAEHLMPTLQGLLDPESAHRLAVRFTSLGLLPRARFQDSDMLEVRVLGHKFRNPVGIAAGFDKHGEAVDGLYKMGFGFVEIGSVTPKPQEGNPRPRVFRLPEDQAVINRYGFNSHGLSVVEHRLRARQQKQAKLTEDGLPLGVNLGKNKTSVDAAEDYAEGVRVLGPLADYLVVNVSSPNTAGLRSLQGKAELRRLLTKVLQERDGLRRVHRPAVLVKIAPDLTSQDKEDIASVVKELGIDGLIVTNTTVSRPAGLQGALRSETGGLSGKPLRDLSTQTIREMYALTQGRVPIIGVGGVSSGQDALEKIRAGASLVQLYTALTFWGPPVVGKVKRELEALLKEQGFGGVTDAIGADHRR

Experiments:
recombinant human DHODH = recombinant human DHODH (Homo sapiens, UniProt Q02127); assay: DHODH enzyme reaction inhibition test (DCIP-coupled assay); settings: read-out: Enzyme reaction inhibitory effect (IC50); recombinant human DHODH 0.175 μg/mL, DCIP absorbance 600 nm, 50 minutes, pH 8.0
Description: The DHODH enzyme assay was carried out with reference to “Benjamin Bader, Wolfgang Knecht, Markus Fries, and Monika Loffler, Expression, Purification, and Characterization of Histidine-Tagged Rat and Human Flavoenzyme Dihydroorotate Dehydrogenase, Protein Expression and Purification, 1998, 13, 414-422.”
The DHODH activity was evaluated using an enzyme assay system that is coupled with an assay in which a blue coloring agent 2,6-dichlorophenolindophenol (DCIP, available from MP Biomedicals, LLC, MP150118) is quenched. […] The enzyme activity was assessed by measuring the decrease in DCIP absorbance (600 nm) for 50 minutes using an EnVision plate-reading spectrophotometer (available from PerkinElmer, Inc.). […]

[1] = tested on: human myeloid leukemia cell line HL60; assay: Cell growth test, HL60 (CellTiter-Glo); settings: read-out: Cell growth inhibitory effect (GI50); HL60 cells, 3 days, CellTiter-Glo luminescence
Description: The cell growth test was carried out using the human myeloid leukemia cell line HL60 (available from ATCC, CRL-240). As a culture medium of HL60 cells, RPMI 1640 (available from FUJIFILM Wako Pure Chemical Corporation, 189-02025) supplemented with 10% fetal bovine serum (available from Thermo Fisher Scientific, Inc., 10437-028), and 1% penicillin-streptomycin (10,000 U/mL, available from Thermo Fisher Scientific, Inc., 15140-122) was used. HL60 cells were seeded on a 384-well plate (available from Corning Inc., 4588) at a cell density of 1×10^3 cells/20 μL/well. After culturing overnight, 5 μL of the test compound having a predetermined concentration was added, and 3 days later, 25 μL of CellTiter-Glo (registered trademark) Luminescent Cell Viability Assay (available from Promega Corporation, G7573) was added, and then the amount of luminescence was measured using an EnVision plate reader (available from PerkinElmer, Inc.). Since the amount of luminescence is proportional to the intracellular concentration of adenosine triphosphate (ATP), the amount of luminescence was used as an indicator of the number of viable cells. The growth inhibitory concentration for each test compound concentration was calculated by the following expression. […]

IC50 (recombinant human DHODH): 10 to 100 nM
GI50 [1]: < 100 nM
SMILES: O=C(NO)c1nc(C2CC2)cnc1Nc1cccc(C2=CCOCC2)c1OCC(F)(F)F

Structures were worked out from names or drawings and are uncertain.
